Source: PubChem BioAssay AID1671190 (National Center for Advancing Translational Sciences (NCATS), 2021)
Among all 580,000 compounds or so, about 6,100 (1.1%) were called active. The shares of active, inactive and inconclusive entries below differ from those in the screen. The call rests on the fitted dose curve; in most records, active means well fitted inhibition curve with a large enough effect; inconclusive means small, poorly fitted or top-dose-only effect, or another doubt; inactive means no such curve, though single readings can be large or run the other way. A potency beside an inconclusive call is a rough fit, not a confirmed value.

Amino acid sequences for entries named in this document (tags omitted). A change or cut given only in a name is not applied to a line headed by its entry.
UniProt P18054: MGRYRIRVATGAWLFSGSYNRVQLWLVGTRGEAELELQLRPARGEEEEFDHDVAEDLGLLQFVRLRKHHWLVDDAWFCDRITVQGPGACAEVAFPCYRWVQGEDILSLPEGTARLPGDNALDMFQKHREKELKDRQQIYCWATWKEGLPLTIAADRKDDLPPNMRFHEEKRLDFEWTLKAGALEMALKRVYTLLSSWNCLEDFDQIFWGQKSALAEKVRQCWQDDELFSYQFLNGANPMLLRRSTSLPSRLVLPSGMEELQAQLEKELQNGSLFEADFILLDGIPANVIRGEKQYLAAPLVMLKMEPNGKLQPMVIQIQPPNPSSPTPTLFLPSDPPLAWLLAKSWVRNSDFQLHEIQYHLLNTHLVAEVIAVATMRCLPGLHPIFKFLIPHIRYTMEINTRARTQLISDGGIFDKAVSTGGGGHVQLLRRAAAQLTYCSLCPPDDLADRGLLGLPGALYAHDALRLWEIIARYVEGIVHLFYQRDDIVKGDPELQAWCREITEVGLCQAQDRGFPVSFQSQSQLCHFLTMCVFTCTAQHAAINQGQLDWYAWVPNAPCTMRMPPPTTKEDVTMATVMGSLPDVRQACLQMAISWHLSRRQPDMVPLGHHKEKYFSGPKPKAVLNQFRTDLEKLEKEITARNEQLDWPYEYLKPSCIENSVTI

Target: Polyunsaturated fatty acid lipoxygenase ALOX12 (Homo sapiens) (UniProt P18054)
Experiment: Primary qHTS assay for inhibitors of human arachidonate 12S-lipoxygenase (ALOX12): Round 2
Conditions: purified 12hLO, xylenol orange hydroperoxide absorbance; activity change, negative = inhibition: at 108 µM (top of the series) unless noted
Procedure, shortened: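 Purified human 12hLO at 150 nM in 25 mM Hepes, 0.01% Triton X-100, pH 7.0, preincubated 15 min at room temperature with compound. Reaction started with 40 uM arachidonic acid, 30 min at room temperature. Hydroperoxide measured by Fe-xylenol orange, 573/405 nm absorbance ratio.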
On the % scale 0 is the no-effect control and ±100 the full control effect; potency means the concentration at half of the fitted maximal effect.

| SMILES | Potency | activity change, negative = inhibition |
| --- | --- | --- |
| Cc1ccc(C(C)C)cc1OCCOCCN1CCCC1 | inconclusive: 0.1 µM [inhibitor, full curve, poor fit] |  |
| COc1ccccc1OCC(=O)Nc1ccccn1 | inconclusive: 39.8 µM [inhibitor, single point] |  |
| C#CCOCCOCCOCCNc1nc(N2CCN(C(=O)[C@H]([C@@H](C)O)n3cc(CCCCN)nn3)CC2)nc(N2CCN(C(=O)[C@H](C)n3cc(CCC(=O)O)nn3)CC2)n1 | inconclusive: 1.26 µM [inhibitor, full curve, poor fit] |  |
| CCOC(=O)c1sc(NC(=O)CSc2nc(C)cc(-c3ccccc3)n2)c(C#N)c1C |  | inactive: 0% |
| O=[N+]([O-])c1ccc(N/N=C/c2cccc(O)c2)cc1 | inconclusive: 50.1 µM [inhibitor, partial curve, poor fit] |  |
| O=C(NC1CC1)c1ccc(-c2ccc3nccn3c2)cc1 | inconclusive: 50.1 µM [inhibitor, partial curve, poor fit] |  |
| CCC(Cc1ccccc1)NC(=O)CS(=O)(=O)Cc1nc(-c2ccc(C)cc2)oc1C (stereo not given) | inconclusive: 0.251 µM [inhibitor, full curve, poor fit] |  |
| CC(C)c1ccc(C(=O)N2CCN(CCO)CC2)cc1 | inconclusive: 31.6 µM [inhibitor, full curve, poor fit] |  |
| CCC(=C(c1ccc(O)cc1)c1ccc(OCCNC)cc1)c1ccccc1 | inconclusive: 21.7 µM [inhibitor, partial curve, poor fit] |  |
| COc1ccc(S[C@]2(C(=O)N3CCCC3)CC(=O)N(c3ccc(C#N)cc3)[C@@H]2c2ccc(OC)cc2)cc1 | inconclusive: 17.8 µM [inhibitor, full curve] |  |
| O=C(CCc1c[nH]c2ccccc12)Nc1ccc(-c2nnc3n2CCCC3)cc1 |  | inactive: 2.82% |
| CCN(CC)CCOC(=O)c1ccc(NC(=O)c2ccc(Cl)c(S(=O)(=O)N3CCCCCC3)c2)cc1 | inconclusive: 44.7 µM [inhibitor, partial curve, poor fit] |  |
| Cc1ccc(-c2csc(C(O)c3cccc(Cl)c3)n2)cc1C (stereo not given) | inconclusive: 14.1 µM [inhibitor, full curve, poor fit] |  |
| C=CCOc1ccc2c(c1)c(=O)cc(C(=O)O)n2CC | inconclusive: 100 µM [inhibitor, partial curve, poor fit] |  |
| Cc1cc(Cl)c(C)c(S(=O)(=O)Oc2ccccc2NC(=O)CCC(=O)O)c1Cl | inconclusive: 50.1 µM [inhibitor, partial curve, poor fit] |  |
| COc1ccc(C(=O)NC2CCCc3ccccc32)c(OC)c1OC (stereo not given) |  | inactive: -8.45% |
| CCN(CC)S(=O)(=O)c1ccc(C(=O)NCCOC(=O)c2ccc(F)cc2F)cc1 | inconclusive: 56.2 µM [inhibitor, partial curve, poor fit] |  |
| COCCCNC(=O)CSc1nc(-c2cccc(F)c2)[nH]c1-c1ccccc1 | inconclusive: 89.1 µM [inhibitor, partial curve, poor fit] |  |
| O=C(c1ccc(F)cc1F)N1CCCC(c2nc(-c3ccc(F)cc3)no2)C1 (stereo not given) | inconclusive: 50.1 µM [inhibitor, partial curve, poor fit] |  |
| COc1ccc(CCN2C(=O)N(c3ccc(F)cc3)C(=O)C2CC(=O)Nc2ccccc2)cc1 (stereo not given) | inconclusive: 100 µM [inhibitor, partial curve, poor fit] |  |

Individual results from the entries so far:
Value of C=CCOc1ccc2c(c1)c(=O)cc(C(=O)O)n2CC under Potency: inconclusive: 100 µM [inhibitor, partial curve, poor fit]
Value of Cc1cc(Cl)c(C)c(S(=O)(=O)Oc2ccccc2NC(=O)CCC(=O)O)c1Cl under Potency: inconclusive: 50.1 µM [inhibitor, partial curve, poor fit]

(next part)

| SMILES | Potency | activity change, negative = inhibition |
| --- | --- | --- |
| Cc1ccc(O)c(CNCCNCc2cc(C)ccc2O)c1 | inconclusive: 50.1 µM [inhibitor, partial curve, poor fit] |  |
| O=C(NNS(=O)(=O)c1ccccc1)c1ccc([N+](=O)[O-])cc1 |  | inactive: -16% |
| CCOc1ccccc1C(=O)OCc1ccc(C#N)cc1 | inconclusive: 15.8 µM [inhibitor, partial curve, poor fit] |  |
| COc1ccc(C2C3=C(CC(C)(C)CC3=O)Oc3ncn(Cc4ccco4)c(=N)c32)cc1 (stereo not given) |  | inactive: 12% |
| COc1ccc(-c2nc3c(Cl)cc(C(F)(F)F)cn3c2Cc2cccc(Cl)c2)cc1OC | inconclusive: 39.8 µM [inhibitor, partial curve, poor fit] |  |
| OCCCNc1c2ccccc2nc2ccccc12 |  | inactive: -13.5% |
| COc1ccc(Cn2c(C3CCN(C(=O)Cc4cccs4)CC3)n[nH]c2=O)cc1 | inconclusive: 28.2 µM [inhibitor, single point] |  |
| C[C@H](NS(=O)(=O)c1ccc(Cl)cc1)C(=O)OCC(=O)NCCc1ccc(S(N)(=O)=O)cc1 | inconclusive: 44.7 µM [inhibitor, partial curve, poor fit] |  |
| CSc1nc(=O)n(-c2ccccc2)c(C)c1C(C)=O | inconclusive: 0.447 µM [inhibitor, full curve, poor fit] |  |
| O=C(NC(c1ccccc1)c1cnccn1)C1CCN(CCOc2ccc(Cl)cc2Cl)CC1 (stereo not given) | inconclusive: 141 µM [inhibitor, single point] |  |
| CN(C(=O)c1cc(S(=O)(=O)N2CCc3ccccc32)cn1C)C1CCCCC1 |  | inactive: -1.05% |
| O=C(NC1CCCc2c1[nH]c1ccccc21)c1n[nH]c2c1CCCC2 (stereo not given) | active: 22.4 µM |  |
| O=C(COC(=O)CSc1cccc2cccc(Cl)c12)Nc1ncc(C(F)(F)F)cc1Cl | active: 28.2 µM |  |
| COc1ccc(-c2c(-c3cc(OC)cc(OC)c3)n(C)c3ccc(-c4ccc(OC)c(F)c4)cc23)cc1 |  | inactive: -10% |
| CCOc1ccc(C(=O)c2cn(CC(=O)Nc3cc(OC)cc(OC)c3)c3ccc(F)cc3c2=O)cc1 |  | inactive: -32.3% |
| CCN(C(=O)CN1C(=O)S/C(=C\c2ccccc2Cl)C1=O)C1CCS(=O)(=O)C1 (stereo not given) | inconclusive: 44.7 µM [inhibitor, partial curve, poor fit] |  |
| CCOC(=O)CN1C(=O)S/C(=C/c2ccc(N3CCCCC3)o2)C1=O | active: 7.94 µM |  |
| CC(Nc1ccc(F)cc1)c1nc(-c2ccco2)no1 (stereo not given) |  | inactive: -22.1% |
| CCOc1ccc(C(C)NC(=S)NCc2ccc(F)cc2)cc1 (stereo not given) | inconclusive: 44.7 µM [inhibitor, partial curve, poor fit] |  |
| CCc1nc2ccc(C(=O)N(CC)CC(=O)Nc3c(F)cccc3F)cc2nc1CC |  | inactive: 1.16% |
